The supplement of paper PMC12823440, “Inhibitors supercharge kinase turnover through native proteolytic circuits” (Nature, 2025)
Structures can show the parent of a compound that is named as a salt. Some of the results follow. Hit calls seldom repeat between salt and free forms of one compound.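 Kinases were expressed as nanoluciferase fusions in K562 cells and luminescence was read every 4 h between 2 and 18 h as percent of control, DMSO set to 100% and a positive control to 0%. A time point counts as decreased when the signal drops significantly (2 sigma). The hit call is the authors' own, does not follow from the count of time points alone, and its rule is not shown.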

The chains behind the UniProt entries cited, without tags or fusion partners. Where a name states a change or a piece, a line headed by the entry shows the natural chain unless it says otherwise.
UniProt P21860, whole entry: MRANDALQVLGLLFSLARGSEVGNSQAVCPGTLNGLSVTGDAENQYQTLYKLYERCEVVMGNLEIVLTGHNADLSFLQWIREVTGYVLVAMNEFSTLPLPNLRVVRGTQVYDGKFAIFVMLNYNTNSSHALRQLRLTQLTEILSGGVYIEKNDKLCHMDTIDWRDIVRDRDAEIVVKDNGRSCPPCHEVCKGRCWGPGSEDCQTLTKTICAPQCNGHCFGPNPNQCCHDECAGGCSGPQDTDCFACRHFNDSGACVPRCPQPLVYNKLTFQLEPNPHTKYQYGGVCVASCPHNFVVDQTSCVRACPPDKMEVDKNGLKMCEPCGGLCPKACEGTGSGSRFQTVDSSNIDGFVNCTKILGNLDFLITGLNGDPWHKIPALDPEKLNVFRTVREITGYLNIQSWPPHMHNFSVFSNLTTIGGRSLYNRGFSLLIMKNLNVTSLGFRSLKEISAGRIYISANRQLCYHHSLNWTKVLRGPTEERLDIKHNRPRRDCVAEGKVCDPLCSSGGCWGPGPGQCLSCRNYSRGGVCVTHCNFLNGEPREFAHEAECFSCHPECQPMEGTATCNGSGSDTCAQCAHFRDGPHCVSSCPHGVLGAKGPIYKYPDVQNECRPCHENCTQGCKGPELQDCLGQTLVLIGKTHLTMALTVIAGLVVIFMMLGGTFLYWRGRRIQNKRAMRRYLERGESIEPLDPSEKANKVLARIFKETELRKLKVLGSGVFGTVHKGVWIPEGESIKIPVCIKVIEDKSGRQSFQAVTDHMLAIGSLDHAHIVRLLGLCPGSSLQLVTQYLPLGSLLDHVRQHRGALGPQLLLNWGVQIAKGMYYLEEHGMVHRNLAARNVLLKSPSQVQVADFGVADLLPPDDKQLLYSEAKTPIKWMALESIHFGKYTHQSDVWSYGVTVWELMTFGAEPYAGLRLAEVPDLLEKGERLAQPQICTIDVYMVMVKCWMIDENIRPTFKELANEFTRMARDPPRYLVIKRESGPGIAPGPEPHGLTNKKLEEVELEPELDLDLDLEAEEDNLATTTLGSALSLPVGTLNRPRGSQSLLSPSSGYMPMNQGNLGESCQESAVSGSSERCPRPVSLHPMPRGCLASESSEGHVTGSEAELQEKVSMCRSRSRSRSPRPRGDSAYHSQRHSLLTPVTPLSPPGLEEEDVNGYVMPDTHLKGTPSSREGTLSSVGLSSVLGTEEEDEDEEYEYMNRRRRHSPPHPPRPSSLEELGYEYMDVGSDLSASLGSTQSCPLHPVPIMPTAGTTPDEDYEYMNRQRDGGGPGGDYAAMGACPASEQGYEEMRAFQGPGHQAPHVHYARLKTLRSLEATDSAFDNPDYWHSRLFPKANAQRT
UniProt Q15303, whole entry R711C: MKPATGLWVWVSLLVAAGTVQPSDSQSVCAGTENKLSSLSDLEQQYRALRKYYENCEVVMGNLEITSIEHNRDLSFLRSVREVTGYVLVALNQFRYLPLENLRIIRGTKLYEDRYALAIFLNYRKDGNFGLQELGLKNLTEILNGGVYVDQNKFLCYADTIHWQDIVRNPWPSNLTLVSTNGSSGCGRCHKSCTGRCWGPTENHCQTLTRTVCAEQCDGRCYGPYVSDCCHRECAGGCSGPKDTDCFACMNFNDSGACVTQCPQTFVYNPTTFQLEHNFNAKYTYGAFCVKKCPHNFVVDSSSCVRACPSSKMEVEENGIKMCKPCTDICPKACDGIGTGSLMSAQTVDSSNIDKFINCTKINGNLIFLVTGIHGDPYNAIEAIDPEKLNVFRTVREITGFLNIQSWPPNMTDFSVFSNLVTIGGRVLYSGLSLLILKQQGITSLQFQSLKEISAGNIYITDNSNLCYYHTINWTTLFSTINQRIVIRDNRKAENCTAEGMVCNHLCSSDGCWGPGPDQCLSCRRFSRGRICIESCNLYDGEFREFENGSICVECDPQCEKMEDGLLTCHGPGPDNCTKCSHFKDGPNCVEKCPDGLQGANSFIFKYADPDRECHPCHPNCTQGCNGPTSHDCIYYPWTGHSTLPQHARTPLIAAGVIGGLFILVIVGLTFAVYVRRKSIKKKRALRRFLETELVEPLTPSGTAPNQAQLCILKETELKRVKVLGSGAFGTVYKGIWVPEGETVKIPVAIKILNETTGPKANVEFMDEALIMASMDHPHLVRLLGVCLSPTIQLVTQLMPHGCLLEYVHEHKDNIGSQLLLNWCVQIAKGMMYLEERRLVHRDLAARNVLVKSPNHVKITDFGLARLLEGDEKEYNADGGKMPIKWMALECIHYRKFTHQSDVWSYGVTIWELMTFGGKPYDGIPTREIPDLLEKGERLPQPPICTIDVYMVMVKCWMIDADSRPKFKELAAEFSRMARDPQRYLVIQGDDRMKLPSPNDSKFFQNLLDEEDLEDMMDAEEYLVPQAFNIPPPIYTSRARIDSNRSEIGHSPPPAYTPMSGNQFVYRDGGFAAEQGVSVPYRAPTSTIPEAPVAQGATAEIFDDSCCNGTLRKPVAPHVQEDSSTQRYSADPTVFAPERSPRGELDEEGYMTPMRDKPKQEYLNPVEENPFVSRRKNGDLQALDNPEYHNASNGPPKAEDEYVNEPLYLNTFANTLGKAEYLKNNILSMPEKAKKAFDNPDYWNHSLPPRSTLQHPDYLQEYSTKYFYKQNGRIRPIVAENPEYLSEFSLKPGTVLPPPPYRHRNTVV
UniProt O75460: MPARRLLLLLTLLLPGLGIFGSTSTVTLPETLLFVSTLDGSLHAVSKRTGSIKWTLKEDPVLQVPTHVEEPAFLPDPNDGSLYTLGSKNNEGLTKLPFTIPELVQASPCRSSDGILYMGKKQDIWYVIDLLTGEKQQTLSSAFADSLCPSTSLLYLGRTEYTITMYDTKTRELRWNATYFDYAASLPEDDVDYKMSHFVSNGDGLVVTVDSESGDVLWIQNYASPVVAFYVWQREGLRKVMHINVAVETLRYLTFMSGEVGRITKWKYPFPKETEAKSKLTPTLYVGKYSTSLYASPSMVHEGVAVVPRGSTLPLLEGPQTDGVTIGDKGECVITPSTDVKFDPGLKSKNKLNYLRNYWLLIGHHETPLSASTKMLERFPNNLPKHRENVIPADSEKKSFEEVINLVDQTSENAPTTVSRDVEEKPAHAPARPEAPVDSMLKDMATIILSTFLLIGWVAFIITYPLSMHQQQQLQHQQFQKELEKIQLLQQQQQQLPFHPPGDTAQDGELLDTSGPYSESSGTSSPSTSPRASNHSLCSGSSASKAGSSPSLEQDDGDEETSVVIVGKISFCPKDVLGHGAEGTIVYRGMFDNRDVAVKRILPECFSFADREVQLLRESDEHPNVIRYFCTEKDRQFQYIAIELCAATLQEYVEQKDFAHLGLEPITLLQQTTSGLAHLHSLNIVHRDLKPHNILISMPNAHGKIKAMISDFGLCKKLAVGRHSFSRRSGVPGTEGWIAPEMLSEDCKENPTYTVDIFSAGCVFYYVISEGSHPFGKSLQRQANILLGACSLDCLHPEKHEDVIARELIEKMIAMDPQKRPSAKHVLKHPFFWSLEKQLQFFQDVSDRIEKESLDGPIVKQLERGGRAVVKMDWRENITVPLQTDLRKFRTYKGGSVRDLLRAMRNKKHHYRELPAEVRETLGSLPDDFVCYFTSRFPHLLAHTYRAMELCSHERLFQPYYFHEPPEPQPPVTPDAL
UniProt P21802, whole entry, looked up: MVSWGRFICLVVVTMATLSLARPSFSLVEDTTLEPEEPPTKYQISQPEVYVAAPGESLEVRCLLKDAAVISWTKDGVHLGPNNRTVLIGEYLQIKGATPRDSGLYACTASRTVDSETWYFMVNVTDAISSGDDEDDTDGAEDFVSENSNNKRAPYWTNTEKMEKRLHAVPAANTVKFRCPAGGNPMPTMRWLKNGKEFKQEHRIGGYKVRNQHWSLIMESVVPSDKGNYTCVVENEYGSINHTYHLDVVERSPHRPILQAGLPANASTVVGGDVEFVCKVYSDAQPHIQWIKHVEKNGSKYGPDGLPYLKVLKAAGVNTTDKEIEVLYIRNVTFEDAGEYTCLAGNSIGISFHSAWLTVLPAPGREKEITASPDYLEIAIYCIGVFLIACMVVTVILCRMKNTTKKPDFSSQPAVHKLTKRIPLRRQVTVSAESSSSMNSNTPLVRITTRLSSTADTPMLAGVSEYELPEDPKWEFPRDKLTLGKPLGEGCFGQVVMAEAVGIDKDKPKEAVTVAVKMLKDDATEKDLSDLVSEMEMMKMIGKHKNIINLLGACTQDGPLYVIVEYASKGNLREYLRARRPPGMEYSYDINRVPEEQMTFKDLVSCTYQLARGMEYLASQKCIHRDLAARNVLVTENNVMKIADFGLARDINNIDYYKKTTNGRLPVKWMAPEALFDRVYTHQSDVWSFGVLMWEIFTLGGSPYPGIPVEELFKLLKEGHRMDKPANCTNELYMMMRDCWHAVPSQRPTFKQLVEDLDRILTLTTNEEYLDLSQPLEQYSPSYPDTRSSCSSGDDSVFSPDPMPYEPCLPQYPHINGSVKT
UniProt P22607, whole entry, looked up: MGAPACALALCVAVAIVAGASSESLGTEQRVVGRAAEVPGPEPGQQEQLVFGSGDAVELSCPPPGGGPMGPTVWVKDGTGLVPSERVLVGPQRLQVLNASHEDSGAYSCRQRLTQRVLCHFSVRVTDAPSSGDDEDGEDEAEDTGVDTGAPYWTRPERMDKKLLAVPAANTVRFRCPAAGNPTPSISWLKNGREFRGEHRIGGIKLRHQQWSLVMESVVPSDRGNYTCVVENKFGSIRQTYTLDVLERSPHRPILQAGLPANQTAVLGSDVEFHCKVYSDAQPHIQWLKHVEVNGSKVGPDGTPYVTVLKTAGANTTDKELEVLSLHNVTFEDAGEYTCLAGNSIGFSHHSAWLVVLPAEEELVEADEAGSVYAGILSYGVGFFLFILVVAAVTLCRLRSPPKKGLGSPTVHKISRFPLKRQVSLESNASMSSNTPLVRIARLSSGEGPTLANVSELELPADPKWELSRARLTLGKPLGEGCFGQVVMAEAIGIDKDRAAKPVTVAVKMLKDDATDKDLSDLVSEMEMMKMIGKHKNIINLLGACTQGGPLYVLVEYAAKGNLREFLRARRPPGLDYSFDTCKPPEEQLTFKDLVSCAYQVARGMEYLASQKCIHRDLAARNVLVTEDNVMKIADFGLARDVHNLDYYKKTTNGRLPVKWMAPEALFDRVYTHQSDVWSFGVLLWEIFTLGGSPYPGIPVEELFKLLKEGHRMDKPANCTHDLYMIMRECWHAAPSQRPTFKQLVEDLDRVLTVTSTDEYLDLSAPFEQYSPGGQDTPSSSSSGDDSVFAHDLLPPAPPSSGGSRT
UniProt P36888, whole entry: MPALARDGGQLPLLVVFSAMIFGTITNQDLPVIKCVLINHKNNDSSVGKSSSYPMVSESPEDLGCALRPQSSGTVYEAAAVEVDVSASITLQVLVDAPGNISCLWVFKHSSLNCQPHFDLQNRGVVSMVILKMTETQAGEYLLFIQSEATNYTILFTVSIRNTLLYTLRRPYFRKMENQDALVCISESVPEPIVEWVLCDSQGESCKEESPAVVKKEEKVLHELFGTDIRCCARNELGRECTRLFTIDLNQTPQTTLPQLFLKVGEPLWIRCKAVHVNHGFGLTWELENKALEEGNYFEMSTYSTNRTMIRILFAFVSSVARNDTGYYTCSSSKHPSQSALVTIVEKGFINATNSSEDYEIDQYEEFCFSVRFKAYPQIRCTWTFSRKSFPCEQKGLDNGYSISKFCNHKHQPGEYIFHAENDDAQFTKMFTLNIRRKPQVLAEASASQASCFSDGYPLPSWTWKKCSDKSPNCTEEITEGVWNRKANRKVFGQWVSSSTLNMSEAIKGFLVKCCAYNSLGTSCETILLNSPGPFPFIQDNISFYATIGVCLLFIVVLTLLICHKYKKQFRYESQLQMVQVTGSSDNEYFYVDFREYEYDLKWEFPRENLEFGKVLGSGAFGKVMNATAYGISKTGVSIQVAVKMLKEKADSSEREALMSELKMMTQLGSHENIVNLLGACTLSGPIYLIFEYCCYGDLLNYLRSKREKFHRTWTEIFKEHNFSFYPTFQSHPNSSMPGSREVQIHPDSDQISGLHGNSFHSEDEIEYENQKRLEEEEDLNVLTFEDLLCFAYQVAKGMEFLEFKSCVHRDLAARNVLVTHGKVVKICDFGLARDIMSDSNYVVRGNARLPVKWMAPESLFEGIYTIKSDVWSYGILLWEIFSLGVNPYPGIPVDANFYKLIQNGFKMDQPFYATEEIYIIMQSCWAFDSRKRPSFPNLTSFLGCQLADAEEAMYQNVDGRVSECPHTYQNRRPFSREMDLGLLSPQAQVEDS

Columns and labels:
Assay in all cases: kinase-Nluc reporter destabilization hit call (1 = scored as downregulated) (binary); higher = compound decreases kinase abundance
Details in all cases: K562; 2-18 h
[1] = biological target: EGFR (UniProt P00533)
[2] = biological target: EGFR_G719S (UniProt P00533)
[3] = biological target: EGFR_G719S_T790M (UniProt P00533)
[4] = biological target: EGFR_L718V (UniProt P00533)
[5] = biological target: EGFR_L858R (UniProt P00533)
[6] = biological target: EGFR_L861Q (UniProt P00533)
[7] = biological target: EGFR_T790M (UniProt P00533)
[8] = biological target: EPHA2 (UniProt P29317)
[9] = biological target: ERBB3 (UniProt P21860)
[10] = biological target: ERBB4_R711C (clone: ERBB4_mut) (UniProt Q15303)
[11] = biological target: ERN1 (UniProt O75460)
[12] = biological target: FGFR1 (UniProt P11362)
[13] = biological target: FGFR2 (UniProt P21802)
[14] = biological target: FGFR3 (UniProt P22607)
[15] = biological target: FGR (UniProt P09769)
[16] = biological target: FLT3 (UniProt P36888)
[17] = biological target: FYN (UniProt P06241)
[18] = biological target: GSK3A (UniProt P49840)
[19] = biological target: HER2 (UniProt P04626)
[20] = biological target: INSRR (UniProt P14616)

Measured: kinase-Nluc reporter destabilization hit call

COc1cc(-c2cc(-c3cccc(O)c3)cnc2N)cc(OC)c1OC (2.5 µM)
inactive: [1] 0 | [2] 0 | [3] 0 | [4] 0 | [5] 0 | [6] 0 | [7] 0 | [8] 0 | [9] 0 | [10] 0 | [11] 0 | [12] 0 | [13] 0 | [14] 0 | [15] 0 | [16] 0 | [17] 0 | [18] 0 | [19] 0 | [20] 0

Clc1ccc(Nc2cccc(-c3cn[nH]c3)c2)cc1 (10 µM)
inactive: [1] 0 | [2] 0 | [3] 0 | [4] 0 | [5] 0 | [6] 0 | [7] 0 | [8] 0 | [9] 0 | [10] 0 | [11] 0 | [12] 0 | [13] 0 | [14] 0 | [15] 0 | [16] 0 | [17] 0 | [18] 0 | [19] 0 | [20] 0

CC[C@H](C)[C@@H]1NC(=O)[C@@H]2CCCN2C(=O)[C@@H]2CCCN2C(=O)[C@@H]2CCCN2C(=O)[C@H](CC(C)C)NC(=O)CNC(=O)CNC(=O)[C@H](Cc2ccccc2)NC1=O [Heterophyllin B] (10 µM)
inactive: [1] 0 | [2] 0 | [3] 0 | [4] 0 | [5] 0 | [6] 0 | [7] 0 | [8] 0 | [9] 0 | [10] 0 | [11] 0 | [12] 0 | [13] 0 | [14] 0 | [15] 0 | [16] 0 | [17] 0 | [18] 0 | [19] 0 | [20] 0

COc1ccc(F)cc1C(=O)NCc1ccc(-c2nn([C@@H](C)C(F)(F)F)c(N)c2C(N)=O)cc1 [Pirtobrutinib] (10 µM)
inactive: [1] 0 | [2] 0 | [3] 0 | [4] 0 | [5] 0 | [6] 0 | [7] 0 | [8] 0 | [9] 0 | [10] 0 | [11] 0 | [12] 0 | [13] 0 | [14] 0 | [15] 0 | [16] 0 | [17] 0 | [18] 0 | [19] 0 | [20] 0

COc1cc(-c2cnc(N)c(-c3ccc(NC(=O)c4cn(CC5CCOCC5)cc(-c5ccc(C)cn5)c4=O)cc3F)c2)ccc1OC[C@H]1COCCO1 [DS-1205b (free base)] (10 µM)
inactive: [1] 0 | [2] 0 | [3] 0 | [4] 0 | [5] 0 | [6] 0 | [7] 0 | [8] 0 | [9] 0 | [10] 0 | [11] 0 | [12] 0 | [13] 0 | [14] 0 | [15] 0 | [16] 0 | [17] 0 | [18] 0 | [19] 0 | [20] 0

Two entries drawn at random from those above, as already listed:
CC[C@H](C)[C@@H]1NC(=O)[C@@H]2CCCN2C(=O)[C@@H]2CCCN2C(=O)[C@@H]2CCCN2C(=O)[C@H](CC(C)C)NC(=O)CNC(=O)CNC(=O)[C@H](Cc2ccccc2)NC1=O [Heterophyllin B] (10 µM)
inactive: [1] 0 | [2] 0 | [3] 0 | [4] 0 | [5] 0 | [6] 0 | [7] 0 | [8] 0 | [9] 0 | [10] 0 | [11] 0 | [12] 0 | [13] 0 | [14] 0 | [15] 0 | [16] 0 | [17] 0 | [18] 0 | [19] 0 | [20] 0

Clc1ccc(Nc2cccc(-c3cn[nH]c3)c2)cc1 (10 µM)
inactive: [1] 0 | [2] 0 | [3] 0 | [4] 0 | [5] 0 | [6] 0 | [7] 0 | [8] 0 | [9] 0 | [10] 0 | [11] 0 | [12] 0 | [13] 0 | [14] 0 | [15] 0 | [16] 0 | [17] 0 | [18] 0 | [19] 0 | [20] 0

Carrying on:

COc1ccc(COc2cc3oc(=O)c4cc(C(C)O)ccc4c3cc2OC)cc1 (stereo not given) [Palomid 529] (2.5 µM)
inactive: [1] 0 | [2] 0 | [3] 0 | [4] 0 | [5] 0 | [6] 0 | [7] 0 | [8] 0 | [9] 0 | [10] 0 | [11] 0 | [12] 0 | [13] 0 | [14] 0 | [15] 0 | [16] 0 | [17] 0 | [18] 0 | [19] 0 | [20] 0

CN(c1ccc(C(F)(F)F)cc1)S(=O)(=O)c1ccc(C(=O)Nc2nc(-c3ccccn3)cs2)cc1 (2.5 µM)
inactive: [1] 0 | [2] 0 | [3] 0 | [4] 0 | [5] 0 | [6] 0 | [7] 0 | [8] 0 | [9] 0 | [10] 0 | [11] 0 | [12] 0 | [13] 0 | [14] 0 | [15] 0 | [16] 0 | [17] 0 | [18] 0 | [19] 0 | [20] 0

COc1ccc2c(c1)C[C@H](C(=O)Nc1ccc(-c3cn[nH]c3)cc1OCCN(C)C)CO2 [Chroman 1] (10 µM)
inactive: [1] 0 | [2] 0 | [3] 0 | [4] 0 | [5] 0 | [6] 0 | [7] 0 | [8] 0 | [9] 0 | [10] 0 | [11] 0 | [12] 0 | [13] 0 | [14] 0 | [15] 0 | [16] 0 | [17] 0 | [18] 0 | [19] 0 | [20] 0

CCn1c(-c2nonc2N)nc2c(C#CCO)ncc(OCCCN)c21 [AKT Kinase Inhibitor] (10 µM)
inactive: [1] 0 | [2] 0 | [3] 0 | [4] 0 | [5] 0 | [6] 0 | [7] 0 | [8] 0 | [9] 0 | [10] 0 | [11] 0 | [12] 0 | [13] 0 | [14] 0 | [15] 0 | [16] 0 | [17] 0 | [18] 0 | [19] 0 | [20] 0

CCS(=O)(=O)c1ccc(Oc2cc(O[C@@H](C)CO)cc(C(=O)Nc3ccn(C)n3)c2)cn1 (10 µM)
inactive: [1] 0 | [2] 0 | [3] 0 | [4] 0 | [5] 0 | [6] 0 | [7] 0 | [8] 0 | [9] 0 | [10] 0 | [11] 0 | [12] 0 | [13] 0 | [14] 0 | [15] 0 | [16] 0 | [17] 0 | [18] 0 | [19] 0 | [20] 0

Cc1cc(F)c(Nc2ncnc3cc(OCc4ccccc4)ccc23)cc1O (10 µM)
inactive: [1] 0 | [2] 0 | [3] 0 | [4] 0 | [5] 0 | [6] 0 | [7] 0 | [8] 0 | [9] 0 | [10] 0 | [11] 0 | [12] 0 | [13] 0 | [14] 0 | [15] 0 | [16] 0 | [17] 0 | [18] 0 | [19] 0 | [20] 0

COc1ccc(C(=O)c2cn(C(C)C)c3ncnc(N)c23)cc1NC(=O)Nc1ccc(Cl)cc1Cl (10 µM)
inactive: [1] 0 | [2] 0 | [3] 0 | [4] 0 | [5] 0 | [6] 0 | [7] 0 | [8] 0 | [9] 0 | [10] 0 | [11] 0 | [12] 0 | [13] 0 | [14] 0 | [15] 0 | [16] 0 | [17] 0 | [18] 0 | [19] 0 | [20] 0

CC(C)c1cnn2c(NCc3ccccc3)cc(NCCCCCCN)nc12 [BS-181 (hydrochloride)] (10 µM)
inactive: [1] 0 | [2] 0 | [3] 0 | [4] 0 | [5] 0 | [6] 0 | [7] 0 | [8] 0 | [9] 0 | [10] 0 | [11] 0 | [12] 0 | [13] 0 | [14] 0 | [15] 0 | [16] 0 | [17] 0 | [18] 0 | [19] 0 | [20] 0

O=C(CC(c1ccccc1)C(C(=O)O)C(=O)O)c1ccc(C(F)(F)F)cc1 (stereo not given) (10 µM)
inactive: [1] 0 | [2] 0 | [3] 0 | [4] 0 | [5] 0 | [6] 0 | [7] 0 | [8] 0 | [9] 0 | [10] 0 | [11] 0 | [12] 0 | [13] 0 | [14] 0 | [15] 0 | [16] 0 | [17] 0 | [18] 0 | [19] 0 | [20] 0

O=S(=O)(N=Cc1c(O)ccc2ccccc12)c1cccs1 (10 µM)
inactive: [1] 0 | [2] 0 | [3] 0 | [4] 0 | [5] 0 | [6] 0 | [7] 0 | [8] 0 | [9] 0 | [10] 0 | [11] 0 | [12] 0 | [13] 0 | [14] 0 | [15] 0 | [16] 0 | [17] 0 | [18] 0 | [19] 0 | [20] 0

C[C@@H](N)COc1ccc(-c2cnc3ccc(N[C@H](C)c4cccc(F)c4)nn23)cc1 [Taletrectinib] (2.5 µM)
inactive: [1] 0 | [2] 0 | [3] 0 | [4] 0 | [5] 0 | [6] 0 | [7] 0 | [8] 0 | [9] 0 | [10] 0 | [11] 0 | [12] 0 | [13] 0 | [14] 0 | [15] 0 | [16] 0 | [17] 0 | [18] 0 | [19] 0 | [20] 0

O=C(Nc1nccs1)C(c1cc(F)ccc1O)N1Cc2ccccc2C1=O (stereo not given) (10 µM)
inactive: [1] 0 | [2] 0 | [3] 0 | [4] 0 | [5] 0 | [6] 0 | [7] 0 | [8] 0 | [9] 0 | [10] 0 | [11] 0 | [12] 0 | [13] 0 | [14] 0 | [15] 0 | [16] 0 | [17] 0 | [18] 0 | [19] 0 | [20] 0
